## Percent effect of library compounds

The chains behind the UniProt entries cited, without tags or fusion partners. Residues count along the entry.
UniProt P9WNZ1, whole entry: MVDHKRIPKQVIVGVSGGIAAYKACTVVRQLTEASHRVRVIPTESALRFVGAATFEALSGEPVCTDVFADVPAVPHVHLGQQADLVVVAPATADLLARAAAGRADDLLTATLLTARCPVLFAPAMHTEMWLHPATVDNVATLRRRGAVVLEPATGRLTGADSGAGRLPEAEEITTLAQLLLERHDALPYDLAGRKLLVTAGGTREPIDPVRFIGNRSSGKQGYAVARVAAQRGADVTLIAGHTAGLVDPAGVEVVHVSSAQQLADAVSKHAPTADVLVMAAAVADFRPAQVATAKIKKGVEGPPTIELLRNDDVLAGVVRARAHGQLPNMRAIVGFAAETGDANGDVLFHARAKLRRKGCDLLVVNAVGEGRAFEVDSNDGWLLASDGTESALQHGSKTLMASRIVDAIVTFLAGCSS
UniProt P9WFT3, whole entry: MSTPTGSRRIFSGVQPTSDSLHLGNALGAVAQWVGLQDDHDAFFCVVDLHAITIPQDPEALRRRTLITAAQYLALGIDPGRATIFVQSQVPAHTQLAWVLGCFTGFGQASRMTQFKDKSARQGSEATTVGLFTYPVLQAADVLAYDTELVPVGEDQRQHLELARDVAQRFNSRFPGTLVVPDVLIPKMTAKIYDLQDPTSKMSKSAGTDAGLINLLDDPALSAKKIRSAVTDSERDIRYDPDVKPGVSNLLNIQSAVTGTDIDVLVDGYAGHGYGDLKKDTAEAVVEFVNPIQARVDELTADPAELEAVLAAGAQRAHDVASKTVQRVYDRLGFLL
UniProt P9WPC5, whole entry: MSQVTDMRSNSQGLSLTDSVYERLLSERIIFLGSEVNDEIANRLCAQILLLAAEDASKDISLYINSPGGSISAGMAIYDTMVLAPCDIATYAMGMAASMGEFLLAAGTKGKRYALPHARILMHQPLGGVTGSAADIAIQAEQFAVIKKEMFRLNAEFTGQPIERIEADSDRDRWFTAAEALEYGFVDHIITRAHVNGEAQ
UniProt P9WPC3, whole entry partner: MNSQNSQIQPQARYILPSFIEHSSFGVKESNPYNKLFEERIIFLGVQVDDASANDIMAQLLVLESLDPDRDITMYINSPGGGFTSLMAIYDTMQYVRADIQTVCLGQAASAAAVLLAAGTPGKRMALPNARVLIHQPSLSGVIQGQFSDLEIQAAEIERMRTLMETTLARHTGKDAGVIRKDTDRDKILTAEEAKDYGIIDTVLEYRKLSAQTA
UniProt A4I591, 1-473: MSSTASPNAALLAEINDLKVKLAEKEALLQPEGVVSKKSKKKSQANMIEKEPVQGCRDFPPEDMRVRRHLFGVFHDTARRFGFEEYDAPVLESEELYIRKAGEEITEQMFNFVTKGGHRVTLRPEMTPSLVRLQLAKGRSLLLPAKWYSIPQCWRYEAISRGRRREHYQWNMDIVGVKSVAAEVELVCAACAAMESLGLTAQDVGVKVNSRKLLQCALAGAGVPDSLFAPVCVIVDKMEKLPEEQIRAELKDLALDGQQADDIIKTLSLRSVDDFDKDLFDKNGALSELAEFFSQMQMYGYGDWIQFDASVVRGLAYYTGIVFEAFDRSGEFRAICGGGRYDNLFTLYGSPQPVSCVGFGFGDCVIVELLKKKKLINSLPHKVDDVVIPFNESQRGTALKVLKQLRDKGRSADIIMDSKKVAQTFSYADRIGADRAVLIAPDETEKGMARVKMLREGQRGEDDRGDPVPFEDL
UniProt Q4DA54, 1-478: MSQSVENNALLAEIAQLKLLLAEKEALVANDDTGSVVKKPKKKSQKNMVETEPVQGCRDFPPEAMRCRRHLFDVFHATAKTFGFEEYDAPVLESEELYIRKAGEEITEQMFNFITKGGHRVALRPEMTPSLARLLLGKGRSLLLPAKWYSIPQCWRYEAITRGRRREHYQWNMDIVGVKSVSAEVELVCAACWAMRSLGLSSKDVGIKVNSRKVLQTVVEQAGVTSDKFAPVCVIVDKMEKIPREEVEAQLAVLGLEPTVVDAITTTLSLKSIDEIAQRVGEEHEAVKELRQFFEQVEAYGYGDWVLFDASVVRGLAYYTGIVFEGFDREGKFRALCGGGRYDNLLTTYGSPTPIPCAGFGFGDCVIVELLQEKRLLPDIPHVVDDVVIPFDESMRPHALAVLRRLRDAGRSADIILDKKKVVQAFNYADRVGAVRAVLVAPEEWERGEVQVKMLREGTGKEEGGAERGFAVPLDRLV

Each number is a percent effect as filed.
The controls that fix the scale are not given in the record; negative values are as filed.
This is an unselected part of the compounds tested.
A dash means the value is not listed here; it may have been measured.

CoaBC: 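Coenzyme A biosynthesis protein CoaBC, Mycobacterium tuberculosis (UniProt P9WNZ1). Enzyme assay of CoaBC with a phosphate dye (Biomol Green) read at 650 nm. Compounds at 30 µM. Higher reads as stronger inhibition, judged from the few compounds that gave an IC50. Most strong results did not repeat in a second test. Size under these conditions: about 67,000 compounds, about 40 of them at 50% or above in at least one test.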
MtTrpRS: 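Tryptophan-tRNA ligase, Mycobacterium tuberculosis (UniProt P9WFT3). Enzyme assay of tryptophanyl-tRNA synthetase; the read-out is not stated. Concentration: 10 µM. Higher most likely means stronger inhibition; the record gives no direction and few retests gave an IC50. Size under these conditions: about 65,000 compounds, about 64 of them at 50% or above in at least one test.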
ClpP1P2: 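Protease assay of ClpP1P2, read by the AMC dye that it sets free. Target: ClpP1P2, Mycobacterium tuberculosis (UniProt P9WPC5 and UniProt P9WPC3). Concentration: 50 µM. Direction is inferred from only a few compounds that gave an IC50; most scored high, so higher reads as stronger inhibition. Most other retested compounds had strongly negative values. About 69,000 compounds were tested under these conditions; 0.015% (about 10) showed 50% or more at least once.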
LiHisRS: 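Enzyme assay of histidyl-tRNA synthetase; the read-out is not stated. Target: Histidine-tRNA ligase, Leishmania infantum (UniProt A4I591). Compounds at 30 µM. Higher reads as stronger inhibition (inferred: compounds with an IC50 in retests scored well above the rest). The assay is labelled LdHisRS but filed under L. infantum. Of about 69,000 compounds tested this way, about 410 (0.6%) reached 50% or more in at least one test.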
TcHisRS: 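Enzyme assay of histidyl-tRNA synthetase; the read-out is not stated. Target: Histidine-tRNA ligase, Trypanosoma cruzi CL Brener (UniProt Q4DA54). Concentration: 30 µM. The record gives no direction; compounds that gave an IC50 in retests scored well above the rest, so higher reads as stronger inhibition. Of about 69,000 compounds tested this way, about 31 (0.045%) reached 50% or more in at least one test.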

| structure | CoaBC | MtTrpRS | ClpP1P2 | LiHisRS | TcHisRS |
|---|---|---|---|---|---|
| `CCOC(=O)NC1CCCN(c2cncc(Br)c2)C1` (centres undefined) | -0.9732% | 3.123% | -4.192% | 6.667% | 1.818% |
| `CCc1ncncc1C(=O)N1CCCN(Cc2ccccc2C)CC1` | 2.216% | -7.72% | -0.9923% | 18.42% | 1.734% |
| `COc1ccc(-c2ccnc(N)c2)c(OC)c1` | 0% | -0.2447% | 20.99% | -5.747% | 0% |
| `CC(C)C(NC(=O)N1CCN(c2ccc(Cl)cc2)CC1)C(=O)NC1CC1` (centres undefined) | -8.333% | -0.2506% | -4.935% | 22.86% | 0% |
| `CN(C)CC(=O)N1Cc2cc(N(C)C)ccc2C1c1cnco1` (centres undefined) | - | 2.035% | 2.815% | 13.68% | 2.454% |
| `Fc1ccccc1OC1CCN(CCn2cc3ccccc3n2)CC1` | 18.7% | 1.989% | -35.07% | 13.25% | 8.458% |
| `O=C(Nc1ccnc2ccnn12)c1ccc(NC2CC2)nc1` | - | -3.612% | -4.196% | 28.57% | 9.091% |
| `O=S(=O)(C1CC1)N1CCc2ncc(Cn3cncn3)n2CC1` | 3.75% | -0.7757% | 7.468% | 19.66% | 13.37% |
| `CNc1ncccc1CN1CCN2CCN(C)CC2C1` (centres undefined) | -0.1267% | 0.7766% | -8.699% | 6.329% | 3.879% |
| `CO[C@H]1CCN(c2ncc(F)cn2)[C@@H]2CN(Cc3ccco3)C[C@H]12` | -1.057% | -0.07047% | -0.1298% | 10.53% | 6.452% |
| `CC1CCc2n[nH]c(C(=O)N3CCc4c(nc(N(C)C)[nH]c4=O)C3)c2C1` (centres undefined) | 0.6361% | 0.1485% | -7.175% | 9.756% | 5.288% |
| `CC(C)c1noc(C(C)S(=O)(=O)CC(=O)N2CCCC2)n1` (centres undefined) | 2.408% | 0.5376% | -2.653% | 24.05% | 1.293% |
| `COc1ccc(Cl)cc1CC(=O)N1CCN(CCO)CC1` | 4.216% | -2.715% | 0.2792% | -6.25% | 1.901% |
| `O=C(CCc1ccsc1)N1CCC(Nc2cccnn2)CC1` | 3.704% | -1.394% | -34.02% | -11.61% | 5.202% |
| `COC(=O)N1C[C@H]2CC[C@@H]1CN(Cc1ccncc1)C2` | 4.866% | 5.447% | -4.152% | 17.78% | 9.091% |
| `O=C1N(C2CCOCC2)CCCC12CCN(c1ncccc1Cl)C2` (centres undefined) | 7.27% | -1.119% | 1.739% | 13.83% | 6.03% |
| `CN(C)C[C@H]1OC[C@@H]2CN(C(=O)NCc3cccc(F)c3)CC[C@@H]21` | -31.35% | -5.489% | -2.537% | 0% | 8.046% |
| `c1nc2n(c1CN1CCCC1)CCN(C1CCOCC1)CC2` | 3.043% | -0.07639% | 4.928% | 13.76% | 9.244% |
| `CC(=O)NCc1nnn2c1CN(c1ncccn1)CCC2` | 5.817% | - | 2.097% | 13.86% | 4.523% |
| `CN(C)CC1CN(C(=O)Cc2ccccc2)Cc2nccn2C1` (centres undefined) | 3.716% | 1.708% | 0.2121% | 3.191% | 5.025% |
| `COc1ccnc(N2C[C@@H](NS(=O)(=O)N(C)C)[C@H](C(C)C)C2)n1` | 3.704% | -1.106% | -7.502% | 7.018% | 4.372% |
| `CN(C)c1ccc(C2CCN(c3cnccn3)CC2)nc1` | 9.817% | -5.783% | -18.37% | 17.45% | 7.143% |
| `O=C(CCNS(=O)(=O)c1ccc(Cl)cc1)NCc1ccoc1` | -4.132% | 2.245% | -6.144% | 9.821% | 10% |
| `CCN1CCN(C(=O)c2cc(-c3cccs3)cs2)CC1` | 0% | -24.19% | -29.34% | 20.99% | 0.4464% |
| `CCc1cn[nH]c1C1CCN(c2cc(C)c3ccc(OC)cc3n2)CC1` | 8.811% | 7.401% | 1.11% | -12.86% | 15.96% |
| `Cc1nc(N2CCOCC2)sc1C(=O)NCC(C)(C)N1CCCCC1` | -1.942% | 6.131% | -5.829% | 10% | 7.28% |
| `COc1c(C(=O)N2CCC(COCc3ccccc3)C2)c(C)nn1C` (centres undefined) | 8.471% | -3.121% | -0.9712% | 10.96% | -6.349% |
| `CC(C)c1noc(C(C)N2CCC(c3nc4ccccc4[nH]3)CC2)n1` (centres undefined) | 1.597% | -1.724% | 4.91% | 15.5% | 7.143% |
| `OCCCNc1cccc(COC2CCCCC2)c1` | 7.443% | 5.148% | -18.06% | 10.59% | 3.015% |
| `O=C(Cc1ccsc1)N1C[C@@H]2OCCN(CC3CC3)[C@@H]2C1` | 3.484% | -4.758% | 11.67% | 24% | 1.149% |
| `O=C(N1CCc2ccccc2CC1)C1(O)Cc2ccccc2C1` | 13.55% | -0.4776% | -11.4% | 21.92% | 13.68% |
| `O=C(NCCO)C1(CC2CC(c3ccc(F)cc3)=NO2)CCOCC1` (centres undefined) | 3.425% | 3.017% | -9.357% | 10.74% | -0.2857% |
| `CCOc1cc(F)ccc1NC(=O)NCC(c1cnn(C)c1)N(C)C` (centres undefined) | -1.613% | -0.6053% | 5.871% | 14.04% | 9.244% |
| `CN1CCN(CC2CN(CC3CC3)Cc3nccn3C2)CC1` (centres undefined) | 5.882% | 2.368% | 2.273% | 10.09% | 9.244% |
| `O=C(NCCN1CCNCC1)c1c(O)c2ccccc2[nH]c1=O` | 0.6729% | 6.231% | 16.53% | 1.942% | 3.825% |
| `CN(C)c1nc2c(c(=O)[nH]1)CCN(C(=O)C1CCCO1)C2` (centres undefined) | 9.002% | -1.67% | 2.96% | 11.11% | 7.879% |
| `Oc1cc(CN2CCC(O)(Cn3ccnc3)CC2)nc2ccc(F)cc12` | -4.032% | -4.262% | -3.931% | 10.53% | 3.911% |
| `CCc1ccc(CN2CCN(C(=O)C(C)C)[C@@H]3CS(=O)(=O)C[C@@H]32)cc1` | 5.4% | -0.7323% | 5.597% | 8.264% | 1.681% |
| `CC(C)(C)NC(=O)Cn1cc(C(N)=O)c(-c2ccccc2)n1` | 15.4% | 3.577% | 4.163% | 19.18% | 1.093% |
| `OC1(CN(Cc2cccnc2)C2CCCCC2)CNCCOC1` (centres undefined) | -16.36% | 2.937% | -3.226% | 22.45% | 15% |
| `CCCC(=O)N1CCCCC1C(=O)Nc1ccc(-c2nnc[nH]2)cc1` (centres undefined) | 6.615% | -6.648% | -4.424% | 6.306% | 8.333% |
| `Cc1cc(N2CCCC2c2nc(C)cc(CCC(=O)O)n2)ncn1` (centres undefined) | 5.109% | 4.928% | 1.467% | 24.21% | 8.955% |
| `CC(C)=CCN1CCN(C(=O)c2cc(C(C)C)no2)[C@H]2CS(=O)(=O)C[C@H]21` | 2.3% | 1.555% | -10.83% | 25% | 6.931% |
| `Cc1cc(N(C)C)nc(C2COCCN2Cc2cc(C)on2)n1` (centres undefined) | -0.2283% | -7.794% | -37.55% | 1.342% | 3.143% |
| `Fc1ccc(CN2CCO[C@H]3[C@H](OCc4ccncc4)CC[C@@H]32)cc1` | 3.704% | - | 0.673% | 20.91% | 9.524% |
| `O=C(Nc1nncs1)N1CCC(CCc2ccc(O)cc2)CC1` | 0.3632% | 0% | -14.75% | 16.3% | 2.97% |
| `CCN(Cc1ccoc1)C(C(N)=O)c1ccc(C#N)cc1` (centres undefined) | -0.9828% | 1.41% | -10.43% | 6.452% | 0% |
| `O=C1NCCCc2[nH]c(C3CCN(C(=O)C4CC4)CC3)nc21` | 1.082% | 2.899% | 0.4459% | 6.557% | 5.6% |
| `Cc1ccccc1N(CC(=O)NCCc1nnc2n1CCC2)S(C)(=O)=O` | -13.39% | -0.1032% | -0.653% | 10.42% | 6.077% |
| `O=C1NCCN(C(=O)CN2CCOC2=O)C1c1cccc(F)c1` (centres undefined) | 6.748% | 0.9046% | -0.7909% | 15.69% | 8.642% |
| `COc1cc(C(=O)N2CCCS2(=O)=O)cc(Cl)c1OC` | -0.1304% | -1.774% | 8.814% | 20.27% | 0.3774% |
| `CC(C)c1nccn1CCCNC(=O)c1ccc(-c2cncnc2)nc1` | 5.357% | 3.552% | -11.77% | 16.5% | -1.245% |
| `CCC(CNC(=O)Cc1cc(C)on1)Oc1cccc(F)c1` (centres undefined) | 3.293% | 2.914% | -8.972% | 17.58% | 9.036% |
| `Cc1nc(COC[C@@]23CCC[C@@H]2CN(Cc2nccs2)C3)cs1` | 6.721% | -0.9017% | 6.347% | 15.79% | -2.299% |
| `CCn1cc(Br)c(C(=O)NCc2cccnc2)n1` | 4.545% | -0.9114% | 10.66% | 12.26% | 1.674% |
| `Nc1cc(CCC2CN(Cc3ccc(C(=O)O)cc3)CCO2)ccn1` (centres undefined) | 0.1309% | -2.083% | 4.322% | 2.857% | 4.301% |
| `O=C(C1=CC2(CCNCC2)c2ccccc21)N1CCCC1` | 2.411% | -7.03% | -5.074% | 3.774% | 2.703% |

Repeated from the top, 6 entries:

Result for CCOC(=O)NC1CCCN(c2cncc(Br)c2)C1 (centres undefined) was CoaBC: -0.9732%; MtTrpRS: 3.123%; ClpP1P2: -4.192%; LiHisRS: 6.667%; TcHisRS: 1.818%.
Result for CCc1ncncc1C(=O)N1CCCN(Cc2ccccc2C)CC1 was CoaBC: 2.216%; MtTrpRS: -7.72%; ClpP1P2: -0.9923%; LiHisRS: 18.42%; TcHisRS: 1.734%.
Result for COc1ccc(-c2ccnc(N)c2)c(OC)c1 was CoaBC: 0%; MtTrpRS: -0.2447%; ClpP1P2: 20.99%; LiHisRS: -5.747%; TcHisRS: 0%.
Result for CC(C)C(NC(=O)N1CCN(c2ccc(Cl)cc2)CC1)C(=O)NC1CC1 (centres undefined) was CoaBC: -8.333%; MtTrpRS: -0.2506%; ClpP1P2: -4.935%; LiHisRS: 22.86%; TcHisRS: 0%.
Result for CN(C)CC(=O)N1Cc2cc(N(C)C)ccc2C1c1cnco1 (centres undefined) was MtTrpRS: 2.035%; ClpP1P2: 2.815%; LiHisRS: 13.68%; TcHisRS: 2.454%.
Result for Fc1ccccc1OC1CCN(CCn2cc3ccccc3n2)CC1 was CoaBC: 18.7%; MtTrpRS: 1.989%; ClpP1P2: -35.07%; LiHisRS: 13.25%; TcHisRS: 8.458%.

Measurements from “University of Dundee, Small-Polar-MMV Screening Library” (2021), ChEMBL document CHEMBL3988442.